In this test the target is Ape's ERBB2 (poly-histidine tagged) (Ape). Kind of test: ELISA, coated antigen, HRP-conjugated antibody, OD 450 nm. Background: In an ELISA, binding on a coated surface is turned into a signal by an enzyme label.

The text below walks through data of US20170066829A1 (published 2017).

Results are given in words; binding and its absence hold for the method and conditions named. Binding can be weak; no strength is given.

B1: Hersintuzumab (antibody, V domains shown)
VH: EVKLVESGGGLVKPGGSLRLSCATSGFSFSSYYMYWVRQAPGKRLEWVAYISSGSEIYYSDSVKGRFTISRDSAKNTLYLQMNSLRAEDTAVYYCARLGDDGMDVWGQGTTVTVSS
VL: DIVMTQSPSSLSASVGDRVTITCRASQNVRTAVAWFQQKPGKAPKALIYLASNRHTGVPDRFTGSGSGTEFTLTISNLQPEDFATYFCLQHNSYPLTFGGGTKVEIK
notes: also called humanized anti-HER2 antibody; humanized monoclonal anti-HER2 antibody
In the case of B1, the binding result was “binds”.
